Measurements: publication PMC10535219, “Discovery and Potential Utility of a Novel Non-Invasive Ocular Delivery Platform” (Pharmaceutics, 2023)

Experiment: Biodisposition of JV-DE1 and JV-MD2 delivered via NIODP (periorbital skin) in non-human primates
Assay type: in vivo, cynomolgus monkeys
Protocol: All experiments were performed at Medicilon. […] A pen brush was used to dose each formulation with three to four circular motions for even distribution. The doses of the test articles were selected based on their solubility/concentration with the maximum deliverable volume on the periorbital skin of the animals. The administered dose was calculated by the weight difference of the pen brush before and after administration. Animals were restrained from eye rubbing in restraint chairs for 2 h after dosing, with access to food and drink. A blood sample was collected from one of the study animals at pre-dosing. For every time point of 0.5, 3, 6, and 24 h post-dose, one animal was euthanized and the ocular tissues (upper eyelid, cornea, retina, and vitreous humor) of both eyes were collected. Plasma samples were collected before each euthanization.
For the convenience of tissue processing and sample extraction, only upper eyelids were collected to represent the entirety of the periorbital tissue. Ocular tissues were homogenized by adding a 9-fold volume of 50% methanol/H2O per gram of tissue. For the LC-MS/MS sample preparation, a 50 μL aliquot of plasma, aqueous humor, vitreous humor, or tissue homogenate was thoroughly mixed with a 250 μL extraction solution of CHCl3/EtOH (1:1); then, a 210 μL supernatant of the samples was transferred to a 96-well plate after centrifugation. […]

Row | SMILES | retinal Cmax relative to Ki on human IP and PAF receptors (JV-DE1, Cmax by eye drops in rabbits and by NIODP in monkeys) | retinal Cmax relative to EC50 or IC50 of most mediators in the omega 3 DHA signaling cascade (JV-MD2, NHP, NIODP)
1 | CC(C)Oc1ccc(Cc2ccc(NC3=NCCN3)cc2)cc1 [JV-DE1, 4,5-dihydro-N-[4-[[4-(1-methylethoxy)phenyl]methyl]phenyl]-1H-imadazol-2-amine] | at least 100 fold | –
2 | CC/C=C\C/C=C\C/C=C\C/C=C\C/C=C\C/C=C\CCC(=O)O [JV-MD2, cis-4,7,10,13,16,19-docosahexaenoic acid] | – | at least 10 fold
